Experimental data from EPA's CvTdb concentration-time database.
The source gives many values for each of these; only a part stands here.

How the values were obtained:
Assay in all cases: concentration in plasma after dosing
Mouse [1] = conditions: 5 min; dosed: 2-Hydroxy-4-methoxybenzophenone; 50 mg/kg; iv; Female; B6C3F1
Rat [2] = conditions: dosed: 2-Hydroxy-4-methoxybenzophenone, 8 mg/kg, iv, Female, F344
Mouse [3] = conditions: 1 h; dosed: 2-Hydroxy-4-methoxybenzophenone; 500 mg/kg; oral; Female; B6C3F1
Mouse [4] = conditions: 1 h; dosed: 2-Hydroxy-4-methoxybenzophenone; 50 mg/kg; iv; Male; B6C3F1
Mouse [5] = conditions: 8 h; dosed: 2-Hydroxy-4-methoxybenzophenone; 500 mg/kg; oral; Female; B6C3F1
Mouse [6] = conditions: 1 h; dosed: 2-Hydroxy-4-methoxybenzophenone; 500 mg/kg; oral; Male; B6C3F1
Rat [7] = conditions: dosed: 2-Hydroxy-4-methoxybenzophenone, 100 mg/kg, oral, Male, F344
Rat [8] = conditions: dosed: 2-Hydroxy-4-methoxybenzophenone, 250 mg/kg, oral, Female, F344
Mouse [9] = conditions: 5 min; dosed: 2-Hydroxy-4-methoxybenzophenone; 500 mg/kg; oral; Female; B6C3F1
Mouse [10] = conditions: 1 h; dosed: 2-Hydroxy-4-methoxybenzophenone; 250 mg/kg; oral; Female; B6C3F1
Mouse [11] = conditions: 5 min; dosed: 2-Hydroxy-4-methoxybenzophenone; 250 mg/kg; oral; Female; B6C3F1
Rat [12] = conditions: dosed: 2-Hydroxy-4-methoxybenzophenone, 500 mg/kg, oral, Female, F344
Mouse [13] = conditions: 2.5 min; dosed: 2-Hydroxy-4-methoxybenzophenone; 500 mg/kg; oral; Male; B6C3F1
Mouse [14] = conditions: 7 h; dosed: 2-Hydroxy-4-methoxybenzophenone; 250 mg/kg; oral; Female; B6C3F1
Mouse [15] = conditions: 2.5 min; dosed: 2-Hydroxy-4-methoxybenzophenone; 500 mg/kg; oral; Female; B6C3F1
Rat [16] = conditions: dosed: Perfluorohexanoic Acid, 160 mg/kg, oral, Male, Harlan Sprague Dawley
Rat [17] = conditions: dosed: Perfluorohexanoic Acid, 160 mg/kg, oral, Female, Harlan Sprague Dawley
Rat [18] = conditions: dosed: Perfluorohexanoic Acid, 40 mg/kg, Female, Harlan Sprague Dawley
Rat [19] = conditions: dosed: Perfluorohexanoic Acid, 80 mg/kg, oral, Female, Harlan Sprague Dawley
Rat [20] = conditions: dosed: Perfluorohexanoic Acid, 160 mg/kg, oral, Male, Harlan Sprague Dawley; remark: listed apart in the source
Rat [21] = conditions: 1 h; dosed: Perfluorohexanoic Acid; 40 mg/kg; Male; F344
Mouse [22] = conditions: 1 h; dosed: 2-Hydroxy-4-methoxybenzophenone; 250 mg/kg; oral; Female; B6C3F1; remark: listed apart in the source
Mouse [23] = conditions: 6 h; dosed: 2-Hydroxy-4-methoxybenzophenone; 50 mg/kg; iv; Female; B6C3F1
Rat [24] = conditions: 10 min; dosed: 2-Hydroxy-4-methoxybenzophenone; 8 mg/kg; iv; Male; F344
Mouse [25] = conditions: 0.5 h; dosed: 2-Hydroxy-4-methoxybenzophenone; 500 mg/kg; oral; Male; B6C3F1
Rat [26] = conditions: 16 h; dosed: 2-Hydroxy-4-methoxybenzophenone; 500 mg/kg; oral; Female; F344
Mouse [27] = conditions: 4 h; dosed: 2-Hydroxy-4-methoxybenzophenone; 50 mg/kg; iv; Female; B6C3F1
Rat [28] = conditions: 0.5 h; dosed: 2-Hydroxy-4-methoxybenzophenone; 8 mg/kg; iv; Female; F344
Rat [29] = conditions: dosed: 2-Hydroxy-4-methoxybenzophenone, 500 mg/kg, oral, Female, F344; remark: listed apart in the source
Mouse [30] = conditions: 1 h; dosed: 2-Hydroxy-4-methoxybenzophenone; 500 mg/kg; oral; Male; B6C3F1; remark: listed apart in the source
Mouse [31] = conditions: 5 min; dosed: 2-Hydroxy-4-methoxybenzophenone; 500 mg/kg; oral; Female; B6C3F1; remark: listed apart in the source
Mouse [32] = conditions: 6 h; dosed: 2-Hydroxy-4-methoxybenzophenone; 50 mg/kg; iv; Female; B6C3F1; remark: listed apart in the source
Mouse [33] = conditions: 5 h; dosed: 2-Hydroxy-4-methoxybenzophenone; 250 mg/kg; oral; Male; B6C3F1
Mouse [34] = conditions: 1 h; dosed: 2-Hydroxy-4-methoxybenzophenone; 250 mg/kg; oral; Female; B6C3F1; remark: listed apart in the source
Mouse [35] = conditions: 8 h; dosed: 2-Hydroxy-4-methoxybenzophenone; 500 mg/kg; oral; Male; B6C3F1
Mouse [36] = conditions: 16 h; dosed: 2-Hydroxy-4-methoxybenzophenone; 50 mg/kg; iv; Male; B6C3F1
Mouse [37] = conditions: 6 h; dosed: 2-Hydroxy-4-methoxybenzophenone; 250 mg/kg; oral; Male; B6C3F1

COc1ccc(C(=O)c2ccccc2)c(O)c1 [2-Hydroxy-4-methoxybenzophenone]
concentration in plasma (Mouse [1]): 20100 ng/mL | concentration in plasma (Rat [2]; 1.5 h): 95.6 ng/mL | concentration in plasma (Rat [2]; 8 h): 10.2 ng/mL | concentration in plasma (Mouse [3]): 120 ng/mL | concentration in plasma (Mouse [4]): 1030 ng/mL | concentration in plasma (Mouse [5]): 34.5 ng/mL | concentration in plasma (Mouse [6]): 265 ng/mL | concentration in plasma (Rat [7]; 5 min): 15.4 ng/mL | concentration in plasma (Rat [7]; 0.5 h): 182 ng/mL | concentration in plasma (Rat [7]; 1 h): 227 ng/mL | concentration in plasma (Rat [7]; 1.5 h): 67.1 ng/mL | concentration in plasma (Rat [7]; 2 h): 58.3 ng/mL | concentration in plasma (Rat [7]; 5 h): 25.1 ng/mL | concentration in plasma (Rat [7]; 6 h): 9.43 ng/mL | concentration in plasma (Rat [7]; 8 h): 8.95 ng/mL | concentration in plasma (Rat [8]; 1.5 h): 327 ng/mL | concentration in plasma (Rat [8]; 8 h): 12.8 ng/mL | concentration in plasma (Mouse [9]): 1000 ng/mL | concentration in plasma (Mouse [10]): 105 ng/mL | concentration in plasma (Mouse [11]): 20.6 ng/mL | concentration in plasma (Rat [12]; 1 h): 2540 ng/mL | concentration in plasma (Rat [12]; 8 h): 93.7 ng/mL | concentration in plasma (Mouse [13]): 21.7 ng/mL | concentration in plasma (Mouse [14]): 21 ng/mL | concentration in plasma (Mouse [15]): 178 ng/mL

O=C(O)C(F)(F)C(F)(F)C(F)(F)C(F)(F)C(F)(F)F [Perfluorohexanoic Acid]
concentration in plasma (Rat [16]; 0.75 h): 171000 ng/mL | concentration in plasma (Rat [16]; 12 h): 4270 ng/mL | concentration in plasma (Rat [17]; 0.75 h): 135000 ng/mL | concentration in plasma (Rat [17]; 12 h): 161 ng/mL | concentration in plasma (Rat [18]; 0.75 h): 29200 ng/mL | concentration in plasma (Rat [18]; 24 h): 28.6 ng/mL | concentration in plasma (Rat [19]; 5 min): 48600 ng/mL | concentration in plasma (Rat [19]; 9 h): 238 ng/mL | concentration in plasma (Rat [20]; 0.75 h): 247000 ng/mL | concentration in plasma (Rat [20]; 12 h): 7430 ng/mL | concentration in plasma (Rat [21]): 45200 ng/mL

O=C(c1ccccc1)c1ccc(O)cc1O [2,4-Dihydroxybenzophenone]
concentration in plasma (Mouse [22]): 248 ng/mL | concentration in plasma (Mouse [23]): 123 ng/mL | concentration in plasma (Rat [24]): 62.2 ng/mL | concentration in plasma (Mouse [25]): 2860 ng/mL | concentration in plasma (Rat [26]): 120 ng/mL | concentration in plasma (Mouse [27]): 33.9 ng/mL | concentration in plasma (Rat [28]): 56.9 ng/mL | concentration in plasma (Rat [29]; 1 h): 1140 ng/mL | concentration in plasma (Rat [29]; 8 h): 213 ng/mL | concentration in plasma (Mouse [30]): 1170 ng/mL | concentration in plasma (Mouse [31]): 1280 ng/mL | concentration in plasma (Mouse [32]): 30.5 ng/mL | concentration in plasma (Mouse [33]): 163 ng/mL | concentration in plasma (Mouse [34]): 207 ng/mL | concentration in plasma (Mouse [35]): 97.7 ng/mL | concentration in plasma (Mouse [36]): 177 ng/mL | concentration in plasma (Mouse [37]): 257 ng/mL
